Measurements from publication PMC11236980.
For at least one entry, the source does not settle the construct or the ends of the probe. For some of these results: A negative result means that nothing was seen under these conditions. For some of these results: At least one verdict rests on a figure or table, not on a statement of the authors. For some of these results: Tags and fusion partners may be left off the protein sequences shown.

By UniProt entry, the sequences of proteins in these tests, tags left out. Where a name states a change or a piece, a line headed by the entry shows the natural chain unless it says otherwise. Residues count along the entry.
UniProt O75417, 1-894: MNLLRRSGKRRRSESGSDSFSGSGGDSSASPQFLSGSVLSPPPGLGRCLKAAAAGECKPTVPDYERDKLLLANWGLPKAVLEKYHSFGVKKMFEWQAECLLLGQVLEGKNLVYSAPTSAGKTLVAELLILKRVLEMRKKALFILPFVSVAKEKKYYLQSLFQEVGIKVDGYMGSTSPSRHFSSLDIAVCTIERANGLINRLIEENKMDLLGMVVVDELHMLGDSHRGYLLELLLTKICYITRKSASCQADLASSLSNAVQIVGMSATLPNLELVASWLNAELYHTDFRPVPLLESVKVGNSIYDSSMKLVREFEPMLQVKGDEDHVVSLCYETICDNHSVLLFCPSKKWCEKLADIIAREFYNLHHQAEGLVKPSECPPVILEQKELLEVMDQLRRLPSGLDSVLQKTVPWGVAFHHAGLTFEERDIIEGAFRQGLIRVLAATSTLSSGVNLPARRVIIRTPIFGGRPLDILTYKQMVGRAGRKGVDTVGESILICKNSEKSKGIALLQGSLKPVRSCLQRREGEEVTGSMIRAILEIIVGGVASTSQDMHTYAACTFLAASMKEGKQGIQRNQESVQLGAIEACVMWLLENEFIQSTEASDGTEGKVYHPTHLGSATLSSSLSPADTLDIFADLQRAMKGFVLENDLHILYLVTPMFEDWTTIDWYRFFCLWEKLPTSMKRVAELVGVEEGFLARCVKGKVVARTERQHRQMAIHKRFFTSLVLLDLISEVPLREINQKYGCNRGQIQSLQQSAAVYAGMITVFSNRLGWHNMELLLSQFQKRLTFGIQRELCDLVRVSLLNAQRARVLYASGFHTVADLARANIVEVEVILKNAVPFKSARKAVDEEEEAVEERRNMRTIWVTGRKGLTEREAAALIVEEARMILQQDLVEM

What was measured:
Experiment in all cases: EMSA
Polθ-pol (human) = target: T1, Polθ-pol (human) (UniProt O75417); details: ADP-ribose (ADR) competitor, not inhibited; 25 mM Tris-HCl pH 7.5, 5 mM MgCl2, 30 mM NaCl, 5% glycerol, 0.1 mg/mL BSA, 1 mM DTT; PARylation 20 min 37 °C, binding at room temperature; 8% native PAGE 0.5x TBE; recombinant protein; label: 5'-Cy3 on strand 1
T1 sequence (looked up, limits assumed): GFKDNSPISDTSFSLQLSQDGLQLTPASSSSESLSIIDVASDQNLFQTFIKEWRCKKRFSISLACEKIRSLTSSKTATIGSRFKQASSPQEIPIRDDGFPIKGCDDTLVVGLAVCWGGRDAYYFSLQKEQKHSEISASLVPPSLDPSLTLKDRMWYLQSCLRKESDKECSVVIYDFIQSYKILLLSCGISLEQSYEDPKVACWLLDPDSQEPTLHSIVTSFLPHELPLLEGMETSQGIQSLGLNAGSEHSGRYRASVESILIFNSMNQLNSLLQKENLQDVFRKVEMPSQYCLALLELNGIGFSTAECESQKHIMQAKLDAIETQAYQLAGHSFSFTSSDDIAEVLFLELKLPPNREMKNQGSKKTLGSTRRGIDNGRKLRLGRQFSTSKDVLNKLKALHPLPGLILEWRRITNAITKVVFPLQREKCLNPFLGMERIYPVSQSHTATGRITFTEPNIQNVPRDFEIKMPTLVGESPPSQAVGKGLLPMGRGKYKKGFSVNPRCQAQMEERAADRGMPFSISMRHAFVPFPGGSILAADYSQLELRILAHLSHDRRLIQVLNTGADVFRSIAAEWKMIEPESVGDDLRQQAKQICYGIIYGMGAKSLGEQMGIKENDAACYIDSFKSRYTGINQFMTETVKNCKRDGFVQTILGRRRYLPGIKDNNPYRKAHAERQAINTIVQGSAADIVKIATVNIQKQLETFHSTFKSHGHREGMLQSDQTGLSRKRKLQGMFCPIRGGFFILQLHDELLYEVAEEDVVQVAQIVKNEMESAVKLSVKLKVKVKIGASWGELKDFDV

Polθ-hel (human) = Polθ-hel (human) (UniProt O75417); details: ADP-ribose (ADR) competitor, not significantly inhibited; 25 mM Tris-HCl pH 7.5, 5 mM MgCl2, 30 mM NaCl, 5% glycerol, 0.1 mg/mL BSA, 1 mM DTT; PARylation 20 min 37 °C, binding at room temperature; 8% native PAGE 0.5x TBE; recombinant protein; label: 5'-Cy3 on strand 1
[1] = target: Polθ-hel, PARylated by PARP1 (human) (UniProt O75417); details: with PARP1 25 nM, 100 uM NAD+ and PAS; 25 mM Tris-HCl pH 7.5, 5 mM MgCl2, 30 mM NaCl, 5% glycerol, 0.1 mg/mL BSA, 1 mM DTT; PARylation 20 min 37 °C, binding at room temperature; 8% native PAGE 0.5x TBE; recombinant protein; label: 5'-Cy3; single-stranded DNA
[2] = target: PolθΔcen, PARylated by PARP1 (human) (UniProt O75417); details: with PARP1 25 nM, 100 uM NAD+ and PAS; 25 mM Tris-HCl pH 7.5, 5 mM MgCl2, 30 mM NaCl, 5% glycerol, 0.1 mg/mL BSA, 1 mM DTT; PARylation 20 min 37 °C, binding at room temperature; 8% native PAGE 0.5x TBE; recombinant protein; protein details: 3xFLAG; label: 5'-Cy3; single-stranded DNA

Sequence: CACTGTGAGCTTAGGGTTAGAGCCGG (double strand) [dsDNA (RP348/RP348c)]
- binding result (Polθ-pol (human)): binds
- binding result (Polθ-hel (human)): binds

Sequence: TTTTTTTTTTTTTTTTTTTTTTTTTTTTT [RP316-Cy3]
- binding result [1]: no binding
- binding result [2]: no binding
